No constants are given. Whether binding was seen depends on the method and setting. Binding seen in cells or lysates may run through a third protein. Some results given as binding are weak or reduced against the parent protein; the word gives no strength. Where a sequence is shown, tags or fusion partners need not be part of it.
Target: T1, Flag-tagged USP43 (UniProt Q70EL4)
T1 sequence: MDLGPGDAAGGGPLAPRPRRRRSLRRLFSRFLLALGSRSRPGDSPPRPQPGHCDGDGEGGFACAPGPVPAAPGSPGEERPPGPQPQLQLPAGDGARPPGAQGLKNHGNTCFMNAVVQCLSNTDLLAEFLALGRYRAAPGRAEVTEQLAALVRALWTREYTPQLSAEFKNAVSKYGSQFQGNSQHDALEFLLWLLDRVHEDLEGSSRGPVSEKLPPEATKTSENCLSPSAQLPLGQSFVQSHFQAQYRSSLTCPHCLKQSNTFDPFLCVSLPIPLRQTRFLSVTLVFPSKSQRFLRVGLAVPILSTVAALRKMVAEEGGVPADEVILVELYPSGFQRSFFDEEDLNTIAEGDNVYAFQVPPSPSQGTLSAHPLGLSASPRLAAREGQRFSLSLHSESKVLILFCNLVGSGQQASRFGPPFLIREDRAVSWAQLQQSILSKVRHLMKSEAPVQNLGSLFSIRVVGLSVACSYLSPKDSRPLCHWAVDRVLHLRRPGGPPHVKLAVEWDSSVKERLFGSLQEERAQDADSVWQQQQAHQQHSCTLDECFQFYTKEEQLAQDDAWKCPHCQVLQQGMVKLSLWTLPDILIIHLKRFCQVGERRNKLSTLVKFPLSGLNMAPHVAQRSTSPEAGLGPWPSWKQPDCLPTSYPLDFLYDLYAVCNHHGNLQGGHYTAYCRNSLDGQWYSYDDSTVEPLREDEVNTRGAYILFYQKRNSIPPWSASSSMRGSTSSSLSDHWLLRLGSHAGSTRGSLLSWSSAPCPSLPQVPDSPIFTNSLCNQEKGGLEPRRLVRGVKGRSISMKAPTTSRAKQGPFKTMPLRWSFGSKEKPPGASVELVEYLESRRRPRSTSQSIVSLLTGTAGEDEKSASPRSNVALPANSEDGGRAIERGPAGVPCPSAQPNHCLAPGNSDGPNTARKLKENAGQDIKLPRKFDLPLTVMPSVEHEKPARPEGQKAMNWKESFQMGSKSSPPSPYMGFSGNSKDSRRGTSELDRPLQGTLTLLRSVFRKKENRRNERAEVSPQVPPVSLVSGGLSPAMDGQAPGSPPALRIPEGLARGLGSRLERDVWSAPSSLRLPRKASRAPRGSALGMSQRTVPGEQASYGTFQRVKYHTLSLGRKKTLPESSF
Assay: co-IP; whole cell lysate of MDA-MB-231 cells expressing Flag-tagged USP43 or control vector, incubated with anti-Flag beads at 4 °C, washed three times with IP lysis buffer; immunoblot for cortactin

Sequences of proteins named here, by UniProt entry; tags and fusion partners are left off.
UniProt Q14247: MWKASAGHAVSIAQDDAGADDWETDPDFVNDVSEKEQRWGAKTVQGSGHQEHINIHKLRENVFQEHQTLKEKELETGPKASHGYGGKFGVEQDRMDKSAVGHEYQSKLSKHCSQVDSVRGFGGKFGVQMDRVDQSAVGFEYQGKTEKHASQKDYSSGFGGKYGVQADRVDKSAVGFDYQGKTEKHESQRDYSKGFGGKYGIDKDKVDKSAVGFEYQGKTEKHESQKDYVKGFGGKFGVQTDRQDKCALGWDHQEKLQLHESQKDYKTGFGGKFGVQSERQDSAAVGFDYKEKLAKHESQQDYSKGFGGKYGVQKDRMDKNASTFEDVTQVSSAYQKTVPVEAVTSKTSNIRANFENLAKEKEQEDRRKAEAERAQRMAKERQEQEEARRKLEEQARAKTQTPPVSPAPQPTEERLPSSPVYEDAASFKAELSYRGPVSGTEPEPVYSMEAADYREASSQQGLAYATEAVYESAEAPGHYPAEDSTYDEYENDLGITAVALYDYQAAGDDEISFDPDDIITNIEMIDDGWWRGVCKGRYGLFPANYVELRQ

## cortactin (from UniProt Q14247 1-550)
  binding: binds

From publication PMC9500045
